Experimental data from the supplement of paper PMC12819154, “High-throughput peptide-centric local stability assay extends protein–ligand identification to membrane proteins, tissues and bacteria” (Nature Structural & Molecular Biology, 2025).
Some of the results follow. Most values lie at the level of the controls, where differences are scatter.

The chains behind the UniProt entries cited, without tags or fusion partners. Where a name states a change or a piece, a line headed by the entry shows the natural chain unless it says otherwise.
UniProt Q9H4B7, whole entry: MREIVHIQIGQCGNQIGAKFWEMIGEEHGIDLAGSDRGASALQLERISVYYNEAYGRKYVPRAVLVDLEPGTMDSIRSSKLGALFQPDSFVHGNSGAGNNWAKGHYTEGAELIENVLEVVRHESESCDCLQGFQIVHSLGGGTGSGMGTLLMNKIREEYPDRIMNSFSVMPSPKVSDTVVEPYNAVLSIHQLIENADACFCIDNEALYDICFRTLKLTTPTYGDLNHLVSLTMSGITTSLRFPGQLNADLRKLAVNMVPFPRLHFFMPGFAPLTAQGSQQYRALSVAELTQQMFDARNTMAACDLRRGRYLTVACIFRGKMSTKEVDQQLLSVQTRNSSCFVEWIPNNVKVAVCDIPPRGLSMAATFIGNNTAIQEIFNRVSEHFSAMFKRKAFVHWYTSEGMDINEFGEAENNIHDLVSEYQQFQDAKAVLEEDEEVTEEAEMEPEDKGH
UniProt Q9H8X2: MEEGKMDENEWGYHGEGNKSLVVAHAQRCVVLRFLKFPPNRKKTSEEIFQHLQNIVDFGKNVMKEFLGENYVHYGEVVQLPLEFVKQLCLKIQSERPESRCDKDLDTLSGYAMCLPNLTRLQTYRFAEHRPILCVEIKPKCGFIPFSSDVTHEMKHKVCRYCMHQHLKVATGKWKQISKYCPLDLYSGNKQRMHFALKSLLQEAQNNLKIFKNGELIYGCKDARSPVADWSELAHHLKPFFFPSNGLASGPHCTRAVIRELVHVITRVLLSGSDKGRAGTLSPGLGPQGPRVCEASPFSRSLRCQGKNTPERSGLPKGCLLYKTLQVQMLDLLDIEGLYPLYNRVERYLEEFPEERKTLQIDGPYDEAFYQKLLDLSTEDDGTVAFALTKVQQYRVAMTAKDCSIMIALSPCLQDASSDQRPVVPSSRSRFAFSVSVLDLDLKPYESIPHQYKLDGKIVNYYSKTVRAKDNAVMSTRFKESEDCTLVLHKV
UniProt Q9H7X3: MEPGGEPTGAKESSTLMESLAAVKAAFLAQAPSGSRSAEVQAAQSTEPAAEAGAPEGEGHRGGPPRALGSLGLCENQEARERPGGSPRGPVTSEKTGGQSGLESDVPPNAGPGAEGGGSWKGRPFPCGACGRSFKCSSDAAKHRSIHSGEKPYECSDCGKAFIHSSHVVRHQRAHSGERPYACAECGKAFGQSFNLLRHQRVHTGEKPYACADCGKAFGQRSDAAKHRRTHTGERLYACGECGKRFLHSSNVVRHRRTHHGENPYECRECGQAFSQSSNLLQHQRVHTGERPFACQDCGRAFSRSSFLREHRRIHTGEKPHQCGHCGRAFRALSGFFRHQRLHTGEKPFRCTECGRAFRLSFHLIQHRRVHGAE
UniProt Q9H7E2: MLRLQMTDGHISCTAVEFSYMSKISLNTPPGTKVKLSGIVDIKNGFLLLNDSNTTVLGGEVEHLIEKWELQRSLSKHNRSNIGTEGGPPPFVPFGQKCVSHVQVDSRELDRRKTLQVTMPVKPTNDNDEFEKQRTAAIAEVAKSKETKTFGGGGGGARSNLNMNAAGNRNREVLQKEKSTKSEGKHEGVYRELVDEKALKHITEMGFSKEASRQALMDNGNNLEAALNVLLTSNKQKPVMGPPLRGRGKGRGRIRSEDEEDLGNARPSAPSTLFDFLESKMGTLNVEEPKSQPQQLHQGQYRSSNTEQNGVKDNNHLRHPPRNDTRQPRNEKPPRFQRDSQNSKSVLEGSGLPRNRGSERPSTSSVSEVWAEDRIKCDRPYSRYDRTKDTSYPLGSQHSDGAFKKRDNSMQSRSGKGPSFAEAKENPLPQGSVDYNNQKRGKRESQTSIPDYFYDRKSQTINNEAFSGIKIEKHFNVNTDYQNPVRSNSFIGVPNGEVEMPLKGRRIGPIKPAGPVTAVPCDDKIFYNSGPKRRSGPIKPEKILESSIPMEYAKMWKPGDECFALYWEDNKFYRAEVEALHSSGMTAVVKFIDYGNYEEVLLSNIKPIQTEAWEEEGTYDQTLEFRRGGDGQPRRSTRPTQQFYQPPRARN
UniProt Q9HCK0: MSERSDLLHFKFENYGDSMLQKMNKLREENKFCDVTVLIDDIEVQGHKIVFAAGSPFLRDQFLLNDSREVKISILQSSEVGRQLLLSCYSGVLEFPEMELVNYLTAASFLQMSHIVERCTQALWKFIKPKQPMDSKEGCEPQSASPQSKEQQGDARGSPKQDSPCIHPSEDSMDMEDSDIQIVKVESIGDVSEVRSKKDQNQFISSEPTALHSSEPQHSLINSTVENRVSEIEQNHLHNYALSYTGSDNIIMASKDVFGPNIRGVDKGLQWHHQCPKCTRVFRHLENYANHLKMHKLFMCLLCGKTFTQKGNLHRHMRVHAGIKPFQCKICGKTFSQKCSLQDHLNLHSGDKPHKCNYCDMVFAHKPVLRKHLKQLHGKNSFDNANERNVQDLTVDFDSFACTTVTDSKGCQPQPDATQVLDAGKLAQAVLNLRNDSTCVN
UniProt Q9HC78: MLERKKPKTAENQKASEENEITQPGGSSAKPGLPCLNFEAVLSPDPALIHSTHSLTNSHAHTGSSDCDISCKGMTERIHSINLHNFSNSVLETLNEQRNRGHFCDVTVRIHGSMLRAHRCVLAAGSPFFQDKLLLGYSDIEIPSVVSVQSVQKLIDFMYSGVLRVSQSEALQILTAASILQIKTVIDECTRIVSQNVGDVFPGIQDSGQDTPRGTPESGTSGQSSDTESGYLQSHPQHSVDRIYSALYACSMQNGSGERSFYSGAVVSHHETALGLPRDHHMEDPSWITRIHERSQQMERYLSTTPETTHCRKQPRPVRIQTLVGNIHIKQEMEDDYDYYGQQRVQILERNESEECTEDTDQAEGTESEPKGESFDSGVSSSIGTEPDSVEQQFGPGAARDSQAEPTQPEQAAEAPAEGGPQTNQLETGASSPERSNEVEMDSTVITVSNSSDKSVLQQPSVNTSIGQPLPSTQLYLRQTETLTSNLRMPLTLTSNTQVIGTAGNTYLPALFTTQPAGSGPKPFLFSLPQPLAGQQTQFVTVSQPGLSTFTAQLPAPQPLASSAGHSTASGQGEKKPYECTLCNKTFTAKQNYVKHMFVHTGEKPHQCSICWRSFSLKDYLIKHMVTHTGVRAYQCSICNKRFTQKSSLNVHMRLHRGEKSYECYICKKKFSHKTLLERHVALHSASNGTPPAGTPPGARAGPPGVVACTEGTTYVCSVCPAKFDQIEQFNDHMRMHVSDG
UniProt Q9HCU9: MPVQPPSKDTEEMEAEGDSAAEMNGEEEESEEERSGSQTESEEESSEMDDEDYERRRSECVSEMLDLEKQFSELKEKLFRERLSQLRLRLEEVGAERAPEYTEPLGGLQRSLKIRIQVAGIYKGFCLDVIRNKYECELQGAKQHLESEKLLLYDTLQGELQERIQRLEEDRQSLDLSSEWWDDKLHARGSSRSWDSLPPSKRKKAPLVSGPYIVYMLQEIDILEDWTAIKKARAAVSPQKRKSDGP
UniProt Q9H9D4: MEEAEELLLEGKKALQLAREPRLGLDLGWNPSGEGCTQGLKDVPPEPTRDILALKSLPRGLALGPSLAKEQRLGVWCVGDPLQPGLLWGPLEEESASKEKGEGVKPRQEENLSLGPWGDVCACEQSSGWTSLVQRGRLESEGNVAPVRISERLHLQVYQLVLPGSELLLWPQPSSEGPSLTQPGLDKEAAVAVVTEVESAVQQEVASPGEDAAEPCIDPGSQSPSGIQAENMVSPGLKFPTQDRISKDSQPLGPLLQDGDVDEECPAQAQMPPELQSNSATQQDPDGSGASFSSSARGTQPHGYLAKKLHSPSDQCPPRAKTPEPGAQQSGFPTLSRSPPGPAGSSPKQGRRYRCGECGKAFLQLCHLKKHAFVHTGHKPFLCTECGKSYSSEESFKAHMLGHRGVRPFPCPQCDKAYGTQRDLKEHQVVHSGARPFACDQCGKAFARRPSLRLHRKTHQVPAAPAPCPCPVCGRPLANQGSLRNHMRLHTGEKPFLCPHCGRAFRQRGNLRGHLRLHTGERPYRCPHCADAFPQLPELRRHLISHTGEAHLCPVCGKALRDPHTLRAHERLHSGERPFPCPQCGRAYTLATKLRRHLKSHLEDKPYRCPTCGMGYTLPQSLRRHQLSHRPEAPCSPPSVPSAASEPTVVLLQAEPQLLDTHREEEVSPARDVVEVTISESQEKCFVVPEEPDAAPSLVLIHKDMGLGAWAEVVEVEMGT
UniProt Q9NQ92: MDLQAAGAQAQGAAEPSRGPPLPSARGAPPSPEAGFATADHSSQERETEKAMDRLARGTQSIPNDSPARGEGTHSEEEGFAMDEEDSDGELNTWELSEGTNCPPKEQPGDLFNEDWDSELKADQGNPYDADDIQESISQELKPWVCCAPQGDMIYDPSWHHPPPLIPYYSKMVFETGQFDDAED

compound: CN[C@@H]1C[C@H]2O[C@@](C)([C@@H]1OC)n1c3ccccc3c3c4c(c5c6ccccc6n2c5c31)C(=O)NC4 [staurosporine]; assay: log2 fold change of tryptic peptide abundance, ligand vs vehicle (limited proteolysis) (log2 ratio); higher = more trypsin-susceptible (destabilized); settings: ligand concentration: 20 uM; sample: K562 cleared lysate; digestion: 4 min, 22 C (HT-PELSA RT4min, Orbitrap Astral)

Target	log2 fold change
TUBB1 (peptide sequence: ALSVAELTQQMFDAR, peptide start residue: 283) (UniProt Q9H4B7)	0.336
IPPK (peptide sequence: SLVVAHAQR, peptide start residue: 20) (UniProt Q9H8X2)	0.682
ZNF696 (peptide sequence: AFIHSSHVVR, peptide start residue: 161) (UniProt Q9H7X3)	0.508
TDRD3 (peptide sequence: ENPLPQGSVDYNNQKR, peptide start residue: 425) (UniProt Q9H7E2)	-0.359
UniProt Q9H9G7 (peptide sequence: SFFSAPEGYDHPLGGGR, peptide start residue: 181)	0.477
UniProt Q9HCK0 (peptide sequence: LAQAVLNLR, peptide start residue: 426)	-0.0432
UniProt Q9HC78 (peptide sequence: KPKTAENQK, peptide start residue: 6)	-0.0361
BRMS1 (peptide sequence: LRLEEVGAERAPEYTEPLGGLQR, peptide start residue: 88) (UniProt Q9HCU9)	-0.255
UniProt Q9H9D4 (peptide sequence: GTQPHGYLAK, peptide start residue: 298)	0.447
COPRS (peptide sequence: GTQSIPNDSPAR, peptide start residue: 58) (UniProt Q9NQ92)	-0.0593
